# Experimental data published in the supplement of paper PMC3334620.
# The full ranking holds about 33,000 sequences; the median of “E-score (-0.5 to 0.5)” is about -8e-05, and the highest 2% start at about 0.23. The list shows a part of the results.
# Target: T1, Nrg2 (UniProt P38082)
# T1 sequence: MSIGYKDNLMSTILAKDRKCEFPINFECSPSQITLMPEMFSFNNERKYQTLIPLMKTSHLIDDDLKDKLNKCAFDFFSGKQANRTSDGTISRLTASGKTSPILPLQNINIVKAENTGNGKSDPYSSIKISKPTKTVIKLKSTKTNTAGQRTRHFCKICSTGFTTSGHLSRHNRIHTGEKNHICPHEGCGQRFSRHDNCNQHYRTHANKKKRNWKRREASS
# Assay: PBM E-score (8-mer binding enrichment) (E-score (-0.5 to 0.5)); higher = stronger / more preferred TF binding
# Details: protein concentration: 100 nM; construct: GST-full length
# Protocol: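 Universal 'all 10-mer' protein binding microarrays (Agilent AMADID 015681) probed with GST-tagged S. cerevisiae TFs (full-length or DBD) made by in vitro transcription/translation (PURExpress), about 100-200 nM. Bound TF was detected with fluorescent anti-GST. Each ungapped 8-mer (which stands for itself and its reverse complement) is scored by the PBM enrichment score (E-score), a modified Wilcoxon-Mann-Whitney statistic from -0.5 to +0.5, computed with the Universal PBM Analysis Suite. Scale: above 0.35 generally sequence-specific binding.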
row,Sequence,PBM E-score
1,ACTGGACG,-0.0178
2,GTTAACGA,0.124
3,GGCGAATA,0.14
4,GCACTAAA,0.0452
5,GGAGTCAA,-0.184
6,AGATTGTC,-0.0618
7,TATGTCGA,0.158
8,CTCGTTAC,-0.0407
9,AAATACGT,0.0164
10,CTCTGCGA,0.0307
11,CTTGTCTA,0.0485
12,AACGAACG,0.0842
13,CCGACCCC,-0.283
14,AAGGCTCC,-0.322
15,AGACGCTC,-0.0581
16,AGATCCCA,0.0914
17,CTATCACC,-0.145
18,CTTTACAA,-0.0393
19,CTTCTTGA,-0.0331
20,CACCAATC,0.00066
21,CTGGCAGA,-0.066
22,ACGAGTCT,-0.122

row,Sequence,PBM E-score
1,CTACGTCA,-0.247
2,CACGTTAG,-0.178
3,GGCGTTAA,-0.301
4,ACAGCGGT,-0.0999
5,GTCAACTA,0.18
6,ATCACGGA,0.0273
7,ACAGAGCC,-0.0203
8,CCGTGTCG,-0.0952
9,CATCGAAA,0.0505
10,ACTCGATA,0.0203
11,AATGTCGG,-0.077
12,AATACGCG,0.142
13,CCCCTATA,-0.0914
14,TATCATCA,0.0106
15,GAATCAGC,0.0861
16,CATGTCAA,-0.0797
17,AGTTAACT,0.046
18,ATATTGGG,0.0515
19,CCAAAGCG,-0.124
20,AATGACCC,-0.0422
21,ACAGGGTG,0.0367
22,CCCTATTA,0.139

row,Sequence,PBM E-score
1,ATCTCAAC,0.158
2,AGAGCGCG,0.0781
3,CAGGCCAA,-0.0623
4,CAATGAAC,0.0934
5,ACACCACG,-0.185
6,ACCATGAG,0.00372
7,AGATCCTC,-0.14
8,CAATTTTC,0.00102
9,CTATCGTA,-0.0314
10,AGGGGGCA,-0.148
11,ATCTGTTA,0.1
12,AAGAAACT,0.0788
13,CGATCCCA,-0.08
14,AACATAAT,0.248
15,GTGGTATA,0.0994
16,CAAAATGA,0.0129
17,ATTATGGC,0.151
18,ACGAGCAA,-0.142
19,CCCCCTGA,-0.00244
20,CCTTATCC,-0.23
21,ACTGCAAT,0.103
22,GCCCAGGC,-0.3

row,Sequence,PBM E-score
1,CGCCGAAG,-0.164
2,ACCACTGG,-0.0408
3,CGACCACA,-0.133
4,AGCAGCAG,-0.0551
5,ACTCGCGA,0.273
6,GACGCGCC,-0.0615
7,ACAACGAA,0.119
8,ACAATTCC,0.0871
9,ATCGTTTA,0.0491
10,ATGCGCCC,0.137
11,AGCTGGAG,-0.133
12,ATGAAGGG,-0.00192
13,TGAATAAA,-0.124
14,GACAGTAA,0.0902
15,CGTTGGGA,-0.0651
16,GCCAGACC,0.0225
17,CTACGGAG,-0.189
18,CGGGATAG,0.0981
19,CAAGCTAC,-0.0943
20,AGGGCTTG,0.0851

# A second format for some results above:
row | Sequence | PBM E-score
16 | GCCAGACC | 0.0225
17 | CTACGGAG | -0.189
18 | CGGGATAG | 0.0981
